The values that follow come from the supplement of paper PMC10849652.

The chains behind the UniProt entries cited, without tags or fusion partners. Where a name states a change or a piece, a line headed by the entry shows the natural chain unless it says otherwise.
UniProt Q8IWC1: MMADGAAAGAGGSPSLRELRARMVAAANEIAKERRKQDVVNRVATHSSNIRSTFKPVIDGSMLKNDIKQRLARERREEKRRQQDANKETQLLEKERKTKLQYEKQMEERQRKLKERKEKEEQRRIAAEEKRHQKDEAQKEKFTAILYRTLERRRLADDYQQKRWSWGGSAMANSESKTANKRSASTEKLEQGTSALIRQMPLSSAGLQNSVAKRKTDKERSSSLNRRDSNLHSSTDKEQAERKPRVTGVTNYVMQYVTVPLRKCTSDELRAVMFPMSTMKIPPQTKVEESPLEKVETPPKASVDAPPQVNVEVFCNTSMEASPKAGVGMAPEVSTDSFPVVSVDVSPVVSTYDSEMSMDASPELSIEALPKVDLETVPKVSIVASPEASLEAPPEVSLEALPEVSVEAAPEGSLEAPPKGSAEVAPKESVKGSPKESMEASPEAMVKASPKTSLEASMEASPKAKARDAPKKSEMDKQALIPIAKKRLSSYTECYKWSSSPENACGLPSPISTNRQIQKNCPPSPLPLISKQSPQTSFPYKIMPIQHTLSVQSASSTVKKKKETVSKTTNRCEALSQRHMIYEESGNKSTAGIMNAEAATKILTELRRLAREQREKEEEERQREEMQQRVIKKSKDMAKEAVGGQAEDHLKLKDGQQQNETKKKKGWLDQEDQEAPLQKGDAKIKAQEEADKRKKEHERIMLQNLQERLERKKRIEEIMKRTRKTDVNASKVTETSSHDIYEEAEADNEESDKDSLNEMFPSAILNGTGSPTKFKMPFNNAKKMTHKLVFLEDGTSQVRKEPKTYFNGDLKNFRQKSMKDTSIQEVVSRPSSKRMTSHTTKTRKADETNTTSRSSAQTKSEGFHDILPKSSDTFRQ
UniProt Q9Y4Y9: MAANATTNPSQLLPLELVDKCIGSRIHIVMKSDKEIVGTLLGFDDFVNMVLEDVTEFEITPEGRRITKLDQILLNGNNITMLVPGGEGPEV
UniProt P12980: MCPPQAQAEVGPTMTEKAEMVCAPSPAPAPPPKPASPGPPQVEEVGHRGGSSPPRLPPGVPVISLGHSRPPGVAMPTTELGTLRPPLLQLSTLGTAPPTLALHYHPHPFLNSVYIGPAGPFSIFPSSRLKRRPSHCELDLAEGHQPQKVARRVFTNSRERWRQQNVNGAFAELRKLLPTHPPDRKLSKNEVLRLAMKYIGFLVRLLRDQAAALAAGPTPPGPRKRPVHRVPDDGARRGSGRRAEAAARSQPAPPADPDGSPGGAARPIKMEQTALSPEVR
UniProt Q9Y4K4: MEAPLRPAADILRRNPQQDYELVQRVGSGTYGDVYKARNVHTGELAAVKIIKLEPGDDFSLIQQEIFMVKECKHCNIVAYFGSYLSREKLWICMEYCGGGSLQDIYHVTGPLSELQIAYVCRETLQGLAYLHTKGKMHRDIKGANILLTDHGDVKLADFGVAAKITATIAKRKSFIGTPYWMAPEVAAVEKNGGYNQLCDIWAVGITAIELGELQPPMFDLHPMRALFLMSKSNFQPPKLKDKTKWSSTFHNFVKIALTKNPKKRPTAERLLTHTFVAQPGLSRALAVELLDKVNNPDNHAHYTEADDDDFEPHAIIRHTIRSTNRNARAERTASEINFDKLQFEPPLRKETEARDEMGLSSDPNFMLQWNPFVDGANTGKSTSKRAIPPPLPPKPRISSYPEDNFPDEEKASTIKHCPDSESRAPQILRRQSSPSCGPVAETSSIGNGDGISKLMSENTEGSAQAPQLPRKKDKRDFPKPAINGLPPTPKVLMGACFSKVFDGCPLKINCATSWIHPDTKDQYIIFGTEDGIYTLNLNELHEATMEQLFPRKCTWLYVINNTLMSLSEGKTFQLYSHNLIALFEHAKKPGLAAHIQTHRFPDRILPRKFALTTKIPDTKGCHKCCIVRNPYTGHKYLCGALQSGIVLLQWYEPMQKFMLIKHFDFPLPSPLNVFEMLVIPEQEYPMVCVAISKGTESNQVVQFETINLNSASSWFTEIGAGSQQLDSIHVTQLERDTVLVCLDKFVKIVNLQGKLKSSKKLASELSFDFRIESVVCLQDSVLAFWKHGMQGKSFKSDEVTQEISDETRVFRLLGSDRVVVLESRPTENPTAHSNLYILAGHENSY
UniProt Q12851: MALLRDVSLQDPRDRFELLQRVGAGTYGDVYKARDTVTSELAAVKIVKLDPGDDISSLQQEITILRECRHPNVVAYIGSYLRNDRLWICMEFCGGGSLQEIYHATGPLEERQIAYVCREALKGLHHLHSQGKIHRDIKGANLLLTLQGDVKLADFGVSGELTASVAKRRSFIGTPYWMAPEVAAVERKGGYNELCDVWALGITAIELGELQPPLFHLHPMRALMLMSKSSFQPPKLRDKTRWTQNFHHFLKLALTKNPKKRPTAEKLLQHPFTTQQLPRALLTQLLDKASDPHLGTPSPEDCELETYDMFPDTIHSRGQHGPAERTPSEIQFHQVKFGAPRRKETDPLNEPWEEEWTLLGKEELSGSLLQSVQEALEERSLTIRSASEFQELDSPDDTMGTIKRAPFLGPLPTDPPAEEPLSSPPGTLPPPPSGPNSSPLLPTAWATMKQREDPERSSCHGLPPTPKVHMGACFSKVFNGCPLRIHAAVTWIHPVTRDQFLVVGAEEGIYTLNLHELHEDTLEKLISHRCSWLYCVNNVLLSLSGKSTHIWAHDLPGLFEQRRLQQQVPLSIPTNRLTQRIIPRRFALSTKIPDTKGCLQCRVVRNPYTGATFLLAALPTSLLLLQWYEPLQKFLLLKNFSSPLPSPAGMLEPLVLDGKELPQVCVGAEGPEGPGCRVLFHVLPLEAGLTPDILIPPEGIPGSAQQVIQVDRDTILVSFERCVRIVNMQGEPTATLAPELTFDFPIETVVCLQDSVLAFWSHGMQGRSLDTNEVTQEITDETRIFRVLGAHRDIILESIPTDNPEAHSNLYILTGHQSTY
UniProt Q8IVH8: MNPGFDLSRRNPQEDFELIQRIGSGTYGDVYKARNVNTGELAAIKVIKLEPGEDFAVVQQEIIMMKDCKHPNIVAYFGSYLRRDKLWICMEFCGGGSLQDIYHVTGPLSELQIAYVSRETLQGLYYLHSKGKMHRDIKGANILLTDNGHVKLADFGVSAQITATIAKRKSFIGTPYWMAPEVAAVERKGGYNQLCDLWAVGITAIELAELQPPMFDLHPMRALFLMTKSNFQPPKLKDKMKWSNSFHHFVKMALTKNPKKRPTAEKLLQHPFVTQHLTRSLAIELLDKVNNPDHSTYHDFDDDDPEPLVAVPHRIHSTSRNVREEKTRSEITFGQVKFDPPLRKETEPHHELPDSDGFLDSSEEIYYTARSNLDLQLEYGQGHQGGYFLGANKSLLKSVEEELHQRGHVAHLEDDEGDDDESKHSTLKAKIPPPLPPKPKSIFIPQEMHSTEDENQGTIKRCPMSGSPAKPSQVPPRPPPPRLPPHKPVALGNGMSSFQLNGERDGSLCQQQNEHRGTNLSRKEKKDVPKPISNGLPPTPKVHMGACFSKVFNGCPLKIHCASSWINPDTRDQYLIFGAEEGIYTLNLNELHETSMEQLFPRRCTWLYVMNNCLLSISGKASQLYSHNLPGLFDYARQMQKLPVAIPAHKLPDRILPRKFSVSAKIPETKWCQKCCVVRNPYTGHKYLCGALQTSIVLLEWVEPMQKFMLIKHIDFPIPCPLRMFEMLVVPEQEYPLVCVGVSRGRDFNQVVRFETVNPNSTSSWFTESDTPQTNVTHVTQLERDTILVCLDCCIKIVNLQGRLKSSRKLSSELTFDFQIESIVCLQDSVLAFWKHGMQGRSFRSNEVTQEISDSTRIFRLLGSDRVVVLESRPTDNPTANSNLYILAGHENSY
UniProt P27816: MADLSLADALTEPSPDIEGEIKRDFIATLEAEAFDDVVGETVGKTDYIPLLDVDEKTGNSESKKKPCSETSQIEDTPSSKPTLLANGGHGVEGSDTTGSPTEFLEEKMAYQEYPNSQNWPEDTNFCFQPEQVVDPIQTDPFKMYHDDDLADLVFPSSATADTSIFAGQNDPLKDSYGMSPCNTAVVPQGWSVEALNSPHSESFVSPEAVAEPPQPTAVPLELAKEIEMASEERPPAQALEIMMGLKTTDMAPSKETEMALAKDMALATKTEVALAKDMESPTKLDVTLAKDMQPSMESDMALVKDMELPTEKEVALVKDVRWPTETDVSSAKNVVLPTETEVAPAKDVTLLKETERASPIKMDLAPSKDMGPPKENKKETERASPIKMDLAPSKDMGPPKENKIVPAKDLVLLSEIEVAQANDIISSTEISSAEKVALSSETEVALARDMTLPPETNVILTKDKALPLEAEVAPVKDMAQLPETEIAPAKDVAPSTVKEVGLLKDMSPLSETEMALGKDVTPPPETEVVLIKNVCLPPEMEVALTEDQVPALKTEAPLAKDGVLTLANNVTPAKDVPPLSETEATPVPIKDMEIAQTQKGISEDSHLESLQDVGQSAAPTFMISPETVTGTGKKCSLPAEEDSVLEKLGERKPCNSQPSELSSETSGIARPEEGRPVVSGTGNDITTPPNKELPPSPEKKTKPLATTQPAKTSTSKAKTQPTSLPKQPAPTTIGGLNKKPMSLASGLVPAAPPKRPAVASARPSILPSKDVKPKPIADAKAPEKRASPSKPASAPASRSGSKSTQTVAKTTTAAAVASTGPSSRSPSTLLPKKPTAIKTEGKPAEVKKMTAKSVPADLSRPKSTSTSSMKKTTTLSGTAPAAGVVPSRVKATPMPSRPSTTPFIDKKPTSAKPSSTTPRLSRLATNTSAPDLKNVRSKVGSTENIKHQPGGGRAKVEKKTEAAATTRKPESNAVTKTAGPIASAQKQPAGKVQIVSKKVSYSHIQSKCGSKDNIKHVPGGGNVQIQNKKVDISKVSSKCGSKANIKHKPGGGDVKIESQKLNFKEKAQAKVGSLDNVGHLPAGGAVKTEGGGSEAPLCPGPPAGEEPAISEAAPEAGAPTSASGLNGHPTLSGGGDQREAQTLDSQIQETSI
UniProt P07948: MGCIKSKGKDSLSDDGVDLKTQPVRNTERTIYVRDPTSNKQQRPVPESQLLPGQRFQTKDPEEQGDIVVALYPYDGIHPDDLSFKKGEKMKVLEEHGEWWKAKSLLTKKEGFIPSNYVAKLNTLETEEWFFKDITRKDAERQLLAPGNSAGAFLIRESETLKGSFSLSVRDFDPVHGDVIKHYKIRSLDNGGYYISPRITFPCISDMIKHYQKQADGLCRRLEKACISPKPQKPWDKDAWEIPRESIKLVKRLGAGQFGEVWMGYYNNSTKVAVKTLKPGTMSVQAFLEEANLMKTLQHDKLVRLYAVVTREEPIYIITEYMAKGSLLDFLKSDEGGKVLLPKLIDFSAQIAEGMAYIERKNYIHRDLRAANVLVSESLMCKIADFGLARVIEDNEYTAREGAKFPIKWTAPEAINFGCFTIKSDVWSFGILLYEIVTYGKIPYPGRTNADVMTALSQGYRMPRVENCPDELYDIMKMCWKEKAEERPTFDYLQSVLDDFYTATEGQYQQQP
UniProt P10636, whole entry, looked up: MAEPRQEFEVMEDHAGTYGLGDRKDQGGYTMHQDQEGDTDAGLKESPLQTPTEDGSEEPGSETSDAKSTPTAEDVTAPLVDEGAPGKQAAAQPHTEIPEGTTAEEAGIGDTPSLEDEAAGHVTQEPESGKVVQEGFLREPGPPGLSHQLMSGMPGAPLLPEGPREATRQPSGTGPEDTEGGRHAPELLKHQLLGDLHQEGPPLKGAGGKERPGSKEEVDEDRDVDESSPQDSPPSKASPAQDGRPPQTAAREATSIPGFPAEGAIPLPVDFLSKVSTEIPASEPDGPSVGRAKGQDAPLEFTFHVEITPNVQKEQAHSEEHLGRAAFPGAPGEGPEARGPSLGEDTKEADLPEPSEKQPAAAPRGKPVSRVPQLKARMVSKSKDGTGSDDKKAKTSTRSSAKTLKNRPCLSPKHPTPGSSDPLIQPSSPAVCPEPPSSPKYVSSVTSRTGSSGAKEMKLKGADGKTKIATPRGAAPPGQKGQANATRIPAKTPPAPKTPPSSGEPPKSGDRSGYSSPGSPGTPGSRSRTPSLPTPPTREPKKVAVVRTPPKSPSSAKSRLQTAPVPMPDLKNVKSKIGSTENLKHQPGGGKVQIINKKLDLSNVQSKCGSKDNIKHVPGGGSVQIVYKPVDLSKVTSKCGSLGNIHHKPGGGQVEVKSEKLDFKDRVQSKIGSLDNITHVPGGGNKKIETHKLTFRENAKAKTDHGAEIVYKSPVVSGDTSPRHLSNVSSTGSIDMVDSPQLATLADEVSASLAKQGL
UniProt O15525: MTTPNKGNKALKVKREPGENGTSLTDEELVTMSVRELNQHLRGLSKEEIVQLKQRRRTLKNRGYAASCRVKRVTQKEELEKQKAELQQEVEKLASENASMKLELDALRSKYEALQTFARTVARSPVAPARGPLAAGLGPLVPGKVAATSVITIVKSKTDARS

The list shows a part of the results.

Compound in the first assay: COC(=O)N[C@@H](C)CNc1nccc(-c2cn(C(C)C)nc2-c2cc(Cl)cc(NS(C)(=O)=O)c2F)n1 [encorafenib]
Nature of the assay: log2 fold change, soluble protein after heating vs DMSO (PISA); higher = thermal stabilisation; K562 cells, 10 uM, 30 min; active = over 0.2 and 3.5 SD of the protein, either way, in both replicates (recomputed). Put shortly: (§1)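 Thermal stability values are relative to control samples and come from duplicates. They are expressed as log2 fold changes. For measurement, K562 cells (2×10^6 cells/mL) received 10 μM compound for 30 min, and aliquots were heated for 3 min over 48°C-58°C, pooled, and extracted at 4°C in PBS with 0.5% NP-40. Soluble protein, the supernatant after 21,000xg for 90 min, was quantified by TMTpro 16plex LC-MS/MS with equalised channel sums.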
In the case of MAP7D3 (UniProt Q8IWC1), the log2 fold change is inactive: 0.069.

Turning to LSM5 (UniProt Q9Y4Y9), the log2 fold change was inactive: -0.056.

With LYL1 (UniProt P12980), the log2 fold change was inactive: 0.151.

On to MAGEA8 (UniProt P43361), for which the log2 fold change was inactive: 0.038.

On to MAP4K4 isoform 6 (UniProt O95819), for which the log2 fold change is inactive: 0.049.

Take MAP4K5 (UniProt Q9Y4K4): the log2 fold change is inactive: 0.082.

Consider MAP4K2 (UniProt Q12851), for which the log2 fold change was inactive: 0.066.

Consider MARCHF3 (UniProt Q86UD3), for which the log2 fold change is inactive: 0.097.

As for MAP4K3 (UniProt Q8IVH8), the log2 fold change was inactive: 0.373.

On to MAP4 isoform 5 (UniProt P27816), for which the log2 fold change was inactive: 0.094.

For MAP11 (UniProt Q8WVR3), the log2 fold change is inactive: -0.006.

Compound in the next assay: COC(=O)[C@H](CCSC)NC(=O)C1=C(C=C(C=C1)NC[C@H](CS)N)C2=CC=CC=C2
Described as above. In a few lines: as §1
With MAP3K10 (UniProt Q02779), the log2 fold change was inactive: -0.014.

Take MAD1L1 (UniProt Q9Y6D9): the log2 fold change is inactive: -0.001.

Regarding LYN isoform 2 (UniProt P07948), the log2 fold change is inactive: -0.004.

On to LYL1 (UniProt P12980), for which the log2 fold change was inactive: -0.202.

For MAGEA8 (UniProt P43361), the log2 fold change was inactive: -0.038.

With MAP4K4 isoform 6 (UniProt O95819), the log2 fold change was inactive: -0.036.

Regarding MAML1 (UniProt Q92585), the log2 fold change was inactive: -0.327.

As for MAP4K5 (UniProt Q9Y4K4), the log2 fold change was inactive: -0.041.

MAPT isoform 9 (UniProt P10636): the log2 fold change is inactive: -0.145.

With MAFG (UniProt O15525), the log2 fold change is inactive: -0.007.

On to MAP4K3 (UniProt Q8IVH8), for which the log2 fold change was inactive: 0.119.

LSM14A, A0A140TA76: the log2 fold change was inactive: -0.088.

As for LYST (UniProt Q99698), the log2 fold change was inactive: 0.063.

LSR (UniProt M0QZL9): the log2 fold change was inactive: -0.249.

On to MAP11 (UniProt Q8WVR3), for which the log2 fold change was inactive: 0.017.
